Source: the supplement of paper PMC10689618
Some of the results follow. Repeats are few or missing, and single values can be far off.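 Primary human fetal astrocytes engulfed labelled rat cortical synaptosomes, measured as a red/green ratio corrected for calcein live-cell signal and scaled to the plate median. Toxicity meant calcein falling over 30%; decreased phagocytosis meant below 70% of median above 5 µM.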

How the values were obtained:
Human fetal astrocytes [1] = assay: loss of total cells relative to no-compound high-control median (toxicity); higher = more toxic (fewer cells); conditions: 24 h
Human fetal astrocytes [2] = assay: synaptosome phagocytosis (pHrodo/calcein intensity ratio) relative to plate median of data wells; higher = more phagocytosis; conditions: 24 h

| SMILES | loss of total cells (Human fetal astrocytes [1]; 1.39 µM) [%] | loss of total cells (Human fetal astrocytes [1]; 2.78 µM) [%] | loss of total cells (Human fetal astrocytes [1]; 5.56 µM) [%] | loss of total cells (Human fetal astrocytes [1]; 11.11 µM) [%] | loss of total cells (Human fetal astrocytes [1]; 22.22 µM) [%] | synaptosome phagocytosis (Human fetal astrocytes [2]; 1.39 µM) [%] | synaptosome phagocytosis (Human fetal astrocytes [2]; 2.78 µM) [%] | synaptosome phagocytosis (Human fetal astrocytes [2]; 5.56 µM) [%] | synaptosome phagocytosis (Human fetal astrocytes [2]; 11.11 µM) [%] | synaptosome phagocytosis (Human fetal astrocytes [2]; 22.22 µM) [%] |
| --- | --- | --- | --- | --- | --- | --- | --- | --- | --- | --- |
| CCCc1cc(C(N)=S)ccn1 | 12.6 | 29.2 | 18.8 | 13.8 | 12.9 | 114 | 90.2 | 81.2 | 127 | 140 |
| CN1CCC(=C2c3ccccc3CCc3sccc32)CC1 | -16.1 | -46 | 3.1 | 13.4 | 14.6 | 107 | 101 | 101 | 95.3 | 114 |
| O=C1C(O)=C(O)C(=O)C(O)=C1O | -5.6 | -25.4 | 4.3 | -14.8 | 1.6 | 102 | 93.6 | 130 | 69.2 | 102 |
| CCOc1ccc2nc(S(N)(=O)=O)sc2c1 | 12.1 | -37.3 | 19.3 | -10.2 | 1.6 | 165 | 103 | 115 | 90.7 | 115 |
| OCc1ccccc1O | 19.3 | -0.3 | -16 | 15.3 | 25.8 | 102 | 93.2 | 93.6 | 108 | 109 |
| CS(=O)(=O)c1ccc([C@@H](O)[C@@H](CO)NC(=O)C(Cl)Cl)cc1 | -41.9 | 30.2 | -8.7 | 44.3 | -2.2 | 90.9 | 149 | 95.7 | 148 | 117 |
| CCCc1nc(C(C)(C)O)c(C(=O)OCc2oc(=O)oc2C)n1Cc1ccc(-c2ccccc2-c2nnn[nH]2)cc1 | -10.5 | -19.8 | 1.2 | 23.9 | -5.9 | 98 | 93.5 | 112 | 134 | 122 |
| CC(=O)OCC(=O)[C@@]1(O)CC[C@H]2[C@@H]3C[C@H](C)C4=CC(=O)C=C[C@]4(C)[C@H]3[C@@H](O)C[C@@]21C [6alpha-METHYLPREDNISOLONE ACETATE] | -15.6 | -6.9 | -18.3 | 19.6 | 8.9 | 109 | 130 | 127 | 153 | 118 |
| C[C@]12CCC3c4ccc(OC(=O)c5ccccc5)cc4CCC3C1CCC2=O (stereo not given in full) | 6.1 | 6.1 | 3.6 | 2.9 | -9.1 | 61.6 | 118 | 86.3 | 131 | 106 |
| CCC(=O)c1c(O)cc(O)cc1O | 4 | 14.1 | -49.3 | 8.8 | -39.4 | 125 | 142 | 0 | 92.1 | 70.8 |
| O=C(O)CS | -15.6 | -6.9 | 8.1 | 18.9 | 3 | 128 | 71.3 | 139 | 108 | 100 |
| CC(NCCC(c1ccccc1)c1ccccc1)c1ccccc1 (stereo not given) | 11.2 | 9 | 23.2 | 7.1 | 31.1 | 65.3 | 100 | 105 | 59 | 82.6 |
| COc1c2ccoc2nc2c(OC)c(OCC(O)C(C)(C)O)ccc12 (stereo not given) | -27.9 | -11.2 | -1.5 | 9.5 | -14.8 | 69.8 | 115 | 75.9 | 98.5 | 81.2 |
| OCCN1C[C@H](O)[C@@H](O)[C@H](O)[C@H]1CO | 21 | -5.6 | 11.8 | -4.9 | 4 | 136 | 105 | 107 | 77.8 | 110 |
| CC(=O)Oc1cc(OC(C)=O)c2c(c1)O[C@H](c1ccc(OC(C)=O)c(OC(C)=O)c1)[C@H](OC(C)=O)C2 | -6.9 | 0 | 9.2 | 12.3 | -15.2 | 109 | 99.7 | 96.5 | 98.3 | 107 |
| OC(Cn1cncn1)(Cn1cncn1)c1ccc(F)cc1F | -30.7 | 10.1 | -1.5 | -24.2 | 2.8 | 93.7 | 92.6 | 100 | 131 | 103 |
| CCCCS(=N)(=O)CCC(N)C(=O)O (racemic) [DL-Buthionine-[S,R]-sulfoximine] | -14.8 | -14.8 | -3.7 | 18.2 | 12.6 | 82.2 | 120 | 92.5 | 60.5 | 137 |
| CC(=O)Nc1ccc(S(=O)(=O)c2ccc(NC(C)=O)cc2)cc1 | -21.6 | 0.3 | 8.1 | -15.6 | 6.8 | 95.6 | 92.1 | 104 | 107 | 103 |
| CN1CCCN=C1COC(=O)C(O)(c1ccccc1)C1CCCCC1 (stereo not given) | -19.9 | -21.6 | 2.1 | -3.9 | 11.3 | 97.3 | 113 | 88.6 | 126 | 103 |

Single records (already shown). Values in the order: loss of total cells (Human fetal astrocytes [1]; 1.39 µM) [%] | loss of total cells (Human fetal astrocytes [1]; 2.78 µM) [%] | loss of total cells (Human fetal astrocytes [1]; 5.56 µM) [%] | loss of total cells (Human fetal astrocytes [1]; 11.11 µM) [%] | loss of total cells (Human fetal astrocytes [1]; 22.22 µM) [%] | synaptosome phagocytosis (Human fetal astrocytes [2]; 1.39 µM) [%] | synaptosome phagocytosis (Human fetal astrocytes [2]; 2.78 µM) [%] | synaptosome phagocytosis (Human fetal astrocytes [2]; 5.56 µM) [%] | synaptosome phagocytosis (Human fetal astrocytes [2]; 11.11 µM) [%] | synaptosome phagocytosis (Human fetal astrocytes [2]; 22.22 µM) [%]
C[C@]12CCC3c4ccc(OC(=O)c5ccccc5)cc4CCC3C1CCC2=O (stereo not given in full) in the list: 6.1 | 6.1 | 3.6 | 2.9 | -9.1 | 61.6 | 118 | 86.3 | 131 | 106
O=C1C(O)=C(O)C(=O)C(O)=C1O in the list: -5.6 | -25.4 | 4.3 | -14.8 | 1.6 | 102 | 93.6 | 130 | 69.2 | 102
